Results reported in PMC9711881.
Results are given in words; binding and its absence hold for the method and conditions named. In cells and extracts the contact can be indirect. Some entries that bind do so weakly or less than the wild type. Sequences can lack the tags named with a protein.

Biological target: T1, Myc-tagged mouse cyclin G1 (mouse) (UniProt P51945)
T1 sequence: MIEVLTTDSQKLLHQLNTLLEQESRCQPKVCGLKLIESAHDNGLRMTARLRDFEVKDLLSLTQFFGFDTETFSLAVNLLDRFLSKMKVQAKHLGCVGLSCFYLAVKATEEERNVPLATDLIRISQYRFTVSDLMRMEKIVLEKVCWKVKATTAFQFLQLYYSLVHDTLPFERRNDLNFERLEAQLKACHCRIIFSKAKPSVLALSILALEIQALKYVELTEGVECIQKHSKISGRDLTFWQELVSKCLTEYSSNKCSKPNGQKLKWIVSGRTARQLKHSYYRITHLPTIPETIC
Test: co-IP; HEK293T transfected with Myc-CG1, lysed in M-PER 48 h later; anti-Myc (9E10) antibody on 200 ug whole-cell lysate overnight at 4 C, Protein A/G agarose; washed 3 times with PBS, then PBS with 500 mM NaCl; Western blot for Myc-CG1 and CDK5

cyclin-dependent kinase 5 (from UniProt Q00535 1-292)
binding: binds
